Measurements from PubChem BioAssay AID493014 (National Center for Advancing Translational Sciences (NCATS), 2011).
This is one part of the list. The main result of the screen is listed elsewhere. These columns were measured beside it and carry no call. The list favours compounds with an active or inconclusive main result. Potencies come from curve fits of mixed quality, noted in brackets.

Assay: qHTS Assay to Find Inhibitors of Chronic Active B-Cell Receptor Signaling
Conditions: ABC-DLBCL IkBa-CBG/CBR reporter, luminescence ratio (green luciferase fused to IkBa over red control in TMD8 lymphoma cells), 4 h
In short: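 Doxycycline induced both beetle luciferases in TMD8 lymphoma cells; IKK-driven degradation limits the IkappaBalpha-fused green signal, while red luminescence normalises for cell number and nonspecific effects. Compounds tested up to 46 uM, 4 hrs.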

[1] = measured here: CBR red luminescence, cell number
[2] = measured here: IkBa-CBG green luminescence

| SMILES | AC50 [1] | AC50 [2] |
| --- | --- | --- |
| Cc1ccc(/C=C/C(=O)Nc2cc(S(N)(=O)=O)ccc2O)cc1 | 10 µM [falling, partial curve] | – |
| Cc1ccc(C(=O)NCC(=O)NCC(=O)OCc2ccc(F)cc2)cc1 | 12.6 µM [rising, single point] | – |
| Cc1ccc(S(=O)(=O)Nc2c(O)c3ccccc3oc2=O)cc1 | 20 µM [falling, partial curve, poor fit] | – |
| COc1ccc(NC(C)c2cc(Cl)ccc2O)cc1 (stereo unspecified) | 7.31 µM [falling, partial curve] | – |
| O=C(Nc1ccc2nc(-c3cccnc3)[nH]c2c1)C1CCCCC1 | 8.2 µM [falling, partial curve] | 3.26 µM [rising, full curve, poor fit] |
| COc1ccc(C2CC(c3ccccc3)=NN2C(=O)COC(=O)COc2ccccc2)cc1 (stereo unspecified) | 35.5 µM [rising, partial curve, poor fit] | – |
| CCOC(=O)c1cnc(SCC(=O)N2CCOCC2)nc1N | 35.5 µM [falling, partial curve, poor fit] | – |
| CNC(=O)C1C(=S)NC(N)=C(C#N)C1c1ccccc1 (stereo unspecified) | 1.84 µM [falling, partial curve, poor fit] | – |
| Cc1ccccc1NC(=O)CNc1ccc(Cl)c(C(F)(F)F)c1 | 29.1 µM [falling, partial curve, poor fit] | – |
| N=c1n(CCN2CCCCC2)c2ccccc2n1CC(=O)c1ccc(Cl)c(Cl)c1 | 7.94 µM [falling, partial curve] | – |
| CC(=O)c1coc2ccc(OCC(=O)O)cc12 | 23.1 µM [rising, partial curve, poor fit] | – |
| COc1ccc2nc(-c3cccc(N)c3)[nH]c2c1 | 14.6 µM [falling, partial curve] | – |
| Cc1nc(Nc2ccc(Cl)cc2Cl)sc1C(=O)Nc1ccccc1 | 29.1 µM [falling, single point] | – |
| COc1cc2c3c(c1OC)C1(C=CC(=NNC(N)=O)C=C1)CC3N(C(C)=O)CC2 (stereo unspecified) | 18.4 µM [rising, partial curve, poor fit] | – |
| O=C(Nc1cnccn1)Nc1ccccc1F | 8.91 µM [falling, partial curve, poor fit] | – |
| COc1cccc(/C=C/C(=O)OCC(=O)Nc2ccc(Cl)c(S(=O)(=O)N(C)C)c2)c1 | 25.1 µM [rising, single point] | – |
| COc1ccc(CN2CCN(S(=O)(=O)c3ccccc3)CC2)cc1Br | 8.2 µM [falling, single point] | – |
| COC(=O)[C@]1(C)CCC[C@@]2(C)C3CC[C@@]4(C)C[C@]3(CCC21)CC(=O)N4 (stereo partly specified) | 29.1 µM [falling, single point] | – |
| CN1C(=O)C(CC(=O)NCCc2ccccc2)N(NC(=O)c2cccc(F)c2)C1=S (stereo unspecified) | 11.2 µM [falling, partial curve, poor fit] | – |
| CCCc1c(C(=O)Nc2ccc(OC)cc2)cnn1-c1ccccc1 | 7.94 µM [falling, partial curve] | – |
| Clc1cccc(-n2ncc3c(N4CCCCC4)ncnc32)c1 | 0.1 µM [rising, full curve, poor fit] | – |

| SMILES | AC50 [1] | AC50 [2] |
| --- | --- | --- |
| Cc1cccc(NC(=O)c2ccccc2OCC(=O)c2ccc(F)cc2)c1 | 32.6 µM [rising, partial curve, poor fit] | – |
| Cc1cc(C(=O)Nc2ccccc2N2CCOCC2)c2ccccc2n1 | 0.13 µM [falling, full curve, poor fit] | – |
| O=C(CNC(=O)c1ccccc1F)NCCN1C(=O)S/C(=C\c2ccccc2Cl)C1=O | 3.55 µM [rising, partial curve, poor fit] | – |
| O=C(Nc1ccc(O)cc1C(=O)O)c1ccc(NC(=O)c2ccco2)cc1 | 25.9 µM [falling, partial curve, poor fit] | – |
| COc1ccc(CNC(=O)C2CC(c3cccc(OC)c3)=NO2)cc1 (stereo unspecified) | 20 µM [rising, partial curve, poor fit] | – |
| C#Cc1ccc([C@@H]2C=C(C(=O)NCc3nc4ccccc4[nH]3)O[C@H](OCC)[C@H]2CCCO)cc1 | 4.47 µM [rising, single point] | – |
| CCOC(=O)c1sc2ccc(S(=O)(=O)N3CCCCC3)cc2c1N | 1.41 µM [falling, partial curve, poor fit] | – |
| COc1ccccc1N1CCN(C(C)C(=O)Nc2ccc(S(=O)(=O)N3CCOCC3)cc2)CC1 (stereo unspecified) | 17.8 µM [rising, single point] | – |
| CC(NC(=O)CN1C(=O)NC(Cc2ccccc2)(Cc2ccccc2)C1=O)C12CC3CC(CC(C3)C1)C2 (stereo unspecified) | 23.1 µM [falling, single point] | – |
| COc1cc(/C=N\NC(=O)c2ccccc2F)ccc1Oc1ccc([N+](=O)[O-])cn1 | 35.5 µM [falling, single point] | – |
| CC(C)C(=O)Nc1cccc(NC(=O)c2cccc(Br)c2)c1 | 12.6 µM [falling, partial curve, poor fit] | – |
| CC1(C)CC(=O)C2=C(C1)N(c1ccccc1C#N)C(N)=C(C#N)C2c1cccs1 (stereo unspecified) | 7.31 µM [rising, partial curve, poor fit] | – |
| COc1ccc(CSc2ncn[nH]2)cc1[N+](=O)[O-] | 18.4 µM [rising, single point] | – |
| Cc1cccc(NC(=O)CSc2ncnc3nc[nH]c23)c1C | 35.5 µM [falling, single point] | – |
| CCO/N=C(/C)c1c(O)cc(C(C)(C)C)n(-c2ccccc2)c1=O | 25.9 µM [rising, single point] | – |
| COc1ccccc1NC=C1C(=O)OC2(CCCCC2)OC1=O | 5.62 µM [rising, single point] | – |
| COc1ccc(-n2c(N)c(C(=O)NCc3ccco3)c3nc4ccccc4nc32)cc1OC | 14.6 µM [falling, partial curve, poor fit] | – |
| COc1ccc(NC(=O)CSCC(=O)Nc2nnc(C3CC3)s2)cc1 | 2.31 µM [rising, partial curve, poor fit] | – |
| CSc1ncc(Cl)c(C(=O)Nc2ccccc2C)n1 | 4.47 µM [rising, partial curve, poor fit] | – |
| COc1cc(Cl)cc(/C=C/c2ccc3ccccc3n2)c1OC(C)=O | 1.03 µM [rising, partial curve] | – |
| CC1CC(CCN)(c2ccccc2)C(C)CN1C (stereo unspecified) | 0.112 µM [falling, full curve, poor fit] | – |

Structures from the list above that have a Cl atom:

| SMILES | AC50 [1] | AC50 [2] |
| --- | --- | --- |
| COc1ccc(NC(C)c2cc(Cl)ccc2O)cc1 (stereo unspecified) | 7.31 µM [falling, partial curve] | – |
| Cc1ccccc1NC(=O)CNc1ccc(Cl)c(C(F)(F)F)c1 | 29.1 µM [falling, partial curve, poor fit] | – |
| N=c1n(CCN2CCCCC2)c2ccccc2n1CC(=O)c1ccc(Cl)c(Cl)c1 | 7.94 µM [falling, partial curve] | – |
| Cc1nc(Nc2ccc(Cl)cc2Cl)sc1C(=O)Nc1ccccc1 | 29.1 µM [falling, single point] | – |
| COc1cccc(/C=C/C(=O)OCC(=O)Nc2ccc(Cl)c(S(=O)(=O)N(C)C)c2)c1 | 25.1 µM [rising, single point] | – |
| Clc1cccc(-n2ncc3c(N4CCCCC4)ncnc32)c1 | 0.1 µM [rising, full curve, poor fit] | – |
| O=C(CNC(=O)c1ccccc1F)NCCN1C(=O)S/C(=C\c2ccccc2Cl)C1=O | 3.55 µM [rising, partial curve, poor fit] | – |
| CSc1ncc(Cl)c(C(=O)Nc2ccccc2C)n1 | 4.47 µM [rising, partial curve, poor fit] | – |
| COc1cc(Cl)cc(/C=C/c2ccc3ccccc3n2)c1OC(C)=O | 1.03 µM [rising, partial curve] | – |

(further entries)

| SMILES | AC50 [1] | AC50 [2] |
| --- | --- | --- |
| Cn1ccc2cc(-c3ccc4ncnc(NCc5cccs5)c4c3)ccc21 | 20.6 µM [falling, partial curve] | – |
| O=c1ccc2[n+]([O-])c3ccc(O)cc3oc-2c1 | 14.1 µM [rising, partial curve] | 6.31 µM [rising, partial curve, poor fit] |
| COc1ccccc1OCC(=O)Nc1cccc(-c2nc3ccccc3o2)c1 | 0.461 µM [falling, full curve, poor fit] | – |
| O=C(Cn1c(-c2ccccn2)nc2ccccc21)NCCN1CCOCC1 | 29.1 µM [rising, single point] | – |
| Cc1cc(C)nc(NS(=O)(=O)c2ccc(N/C=C\C(=O)c3cccs3)cc2)n1 | 25.1 µM [falling, single point] | – |
| Cc1nc(SCc2nc3ccc(Cl)cc3[nH]2)c2oc3ccccc3c2n1 | 18.4 µM [falling, single point] | – |
| CC(C)C[C@H](NC(=O)N1CCCCCC1)C(=O)O | 35.5 µM [rising, single point] | – |
| Cc1onc(-c2ccccc2)c1C(=O)OCCOc1ccc([N+](=O)[O-])cc1[N+](=O)[O-] | 6.31 µM [rising, single point] | – |
| CC(=O)Nc1ccc(NC(=O)COC(=O)c2ccc(C)s2)cc1 | 20.6 µM [rising, single point] | – |
| O=C(CCCc1ccccc1)Nc1cccnc1 | 18.4 µM [falling, single point] | 20.6 µM [rising, partial curve, poor fit] |
| O=[N+]([O-])c1ccc(N/N=C\c2cccn2-c2ccccc2)nc1 | 0.447 µM [rising, partial curve, poor fit] | – |
| CCCc1cc(NCCCN(C)C)n2c(nc3ccccc32)c1C#N | 11.2 µM [falling, single point] | – |
| Cc1cc(C)c(NC(=O)CNC(=O)c2ccccc2OCc2c(C)noc2C)c(C)c1 | 20.6 µM [rising, single point] | – |
| COC(=O)c1ccccc1SCc1csc(C)n1 | 8.91 µM [rising, partial curve] | – |
| COc1cccc(C2C(=O)c3ccccc3C2=O)c1 | 4.47 µM [rising, single point] | – |
| COc1ccc(NS(=O)(=O)c2cccc(NC(=O)CCS(=O)(=O)c3ccccc3)c2)cc1 | 32.6 µM [falling, partial curve, poor fit] | – |
| CCNc1nc(NC(C)C)nc(N(C#N)CCOc2ccc(Cl)cc2Cl)n1 | 29.1 µM [falling, single point] | 23.1 µM [rising, partial curve, poor fit] |
| CCCCOc1ccc(C(=O)NCCOc2cccc(OC)c2)cc1 | 25.1 µM [rising, partial curve, poor fit] | – |
| CCOc1ccc(OCc2ccc(C(=O)O)o2)cc1 | 8.2 µM [falling, partial curve] | – |
| Cc1ccc(S(=O)(=O)Nc2ccc(C(=O)N3CCN(c4ccccc4O)CC3)cc2)cc1[N+](=O)[O-] | 32.6 µM [falling, single point] | – |

Shown as tab-separated lines: entries from further up
SMILES	AC50 [1]	AC50 [2]
COc1cccc(C2C(=O)c3ccccc3C2=O)c1	4.47 µM [rising, single point]	–
COc1ccc(NS(=O)(=O)c2cccc(NC(=O)CCS(=O)(=O)c3ccccc3)c2)cc1	32.6 µM [falling, partial curve, poor fit]	–
